In patent US6846845B2, “Heat shock protein inducer” (Eisai Co., Ltd., priority 2002, dated 2005):

Test system: isolated perfused heart
Assay: Isolated perfused heart experiments (Langendorff, no-flow global ischemia/reperfusion), Example 1
Format: in vivo, rat
Method: As mentioned above, 24 hours after administration of 200 mg/kg of GGA or the vehicle, rats were heparinized (500 IU/kg, i.p.) and anesthetized with pentobarbital (50 mg/kg, i.p.).
Each heart was isolated and reperfused using the Langendorff method with Krebs-Henseleit buffer (pH 7.4, [in mM] 118 NaCl, 4.7 KCl, 2.5 CaCl2, 1.2 MgSO4, 1.2 KH2PO4, 25.0 Na2HCO3, 11.0 glucose) equilibrated with a 95% O2, 5% CO2 gas mixture at 36.5° C., 75 mmHg (1.0×10^4 Pa).
A water-filled latex balloon was inserted through the mitral orifice into the left ventricle, and the left ventricular end diastolic pressure (LVEDP) was adjusted to 0-5 mmHg (0-667 Pa). During the first 10 minutes of constant pressure reperfusion, the perfusion flow rate was determined for each heart, and the hearts were then perfused at a determined perfusion rate using a microtube pump, during which time each heart was covered with water-jacketed glassware and humidity was maintained at 90% or more.
Normothermic no-flow global ischemia was performed for 20, 40 and 60 minutes, followed by reperfusion for 30 minutes. […] The ratio of released CK to heart weight was analyzed by unpaired t-test.
The peak position and negative first derivaties of left ventricular pressure (dP/dt max and dP/dt min) were monitored using a pressure transducer. […]

CC(=O)CCC=C(C)CCC=C(C)CCC=C(C)CCC=C(C)C [GGA, 6, 10, 14, 18-tetramethyl-5,9, 13, 17-nonadecatetraen-2-one]
CPP or heart rate during reperfusion versus Control Group (24 h after oral 200 mg/kg, no graph): no great difference | data at the baseline period versus Control Group (Table 1 parameters) (24 hours after oral 200 mg/kg, before ischemia): no differences
